# In publication PMC6316800:
# By UniProt entry, the sequences of proteins in these tests, tags left out.
# UniProt P03496: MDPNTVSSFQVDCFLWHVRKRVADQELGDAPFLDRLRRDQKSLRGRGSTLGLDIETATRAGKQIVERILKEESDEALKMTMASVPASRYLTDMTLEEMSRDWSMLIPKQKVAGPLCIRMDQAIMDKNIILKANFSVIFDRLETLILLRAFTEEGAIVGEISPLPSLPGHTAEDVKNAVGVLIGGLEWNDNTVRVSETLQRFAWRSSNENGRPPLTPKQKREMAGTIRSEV
# These are yes or no findings as the source states them, for the method shown. In cells and extracts the contact can be indirect. A yes stands for co-enrichment or nearness to the bait. Other partners may have been found.
# B1: Splicing factor, arginine/serine-rich 19 (protein, UniProt Q9H7N4 1-1312)
# chain: MEEEDESRGKTEESGEDRGDGPPDRDPTLSPSAFILRAIQQAVGSSLQGDLPNDKDGSRCHGLRWRRCRSPRSEPRSQESGGTDTATVLDMATDSFLAGLVSVLDPPDTWVPSRLDLRPGESEDMLELVAEVRIGDRDPIPLPVPSLLPRLRAWRTGKTVSPQSNSSRPTCARHLTLGTGDGGPAPPPAPSSASSSPSPSPSSSSPSPPPPPPPPAPPAPPAPRFDIYDPFHPTDEAYSPPPAPEQKYDPFEPTGSNPSSSAGTPSPEEEEEEEEEEEEEEEDEEEEEGLSQSISRISETLAGIYDDNSLSQDFPGDESPRPDAQPTQPTPAPGTPPQVDSTRADGAMRRRVFVVGTEAEACREGKVSVEVVTAGGAALPPPLLPPGDSEIEEGEIVQPEEEPRLALSLFRPGGRAARPTPAASATPTAQPLPQPPAPRAPEGDDFLSLHAESDGEGALQVDLGEPAPAPPAADSRWGGLDLRRKILTQRRERYRQRSPSPAPAPAPAAAAGPPTRKKSRRERKRSGEAKEAASSSSGTQPAPPAPASPWDSKKHRSRDRKPGSHASSSARRRSRSRSRSRSTRRRSRSTDRRRGGSRRSRSREKRRRRRRSASPPPATSSSSSSRRERHRGKHRDGGGSKKKKKRSRSRGEKRSGDGSEKAPAPAPPPSGSTSCGDRDSRRRGAVPPSIQDLTDHDLFAIKRTITVGRLDKSDPRGPSPAPASSPKREVLYDSEGLSGEERGGKSSQKDRRRSGAASSSSSSREKGSRRKALDGGDRDRDRDRDRDRDRSSKKARPPKESAPSSGPPPKPPVSSGSGSSSSSSSCSSRKVKLQSKVAVLIREGVSSTTPAKDAASAGLGSIGVKFSRDRESRSPFLKPDERAPTEMAKAAPGSTKPKKTKVKAKAGAKKTKGTKGKTKPSKTRKKVRSGGGSGGSGGQVSLKKSKADSCSQAAGTKGAEETSWSGEERAAKVPSTPPPKAAPPPPALTPDSQTVDSSCKTPEVSFLPEEATEEAGVRGGAEEEEEEEEEEEEEEEEEEQQPATTTATSTAAAAPSTAPSAGSTAGDSGAEDGPASRVSQLPTLPPPMPWNLPAGVDCTTSGVLALTALLFKMEEANLASRAKAQELIQATNQILSHRKPPSSLGMTPAPVPTSLGLPPGPSSYLLPGSLPLGGCGSTPPTPTGLAATSDKREGSSSSEGRGDTDKYLKKLHTQERAVEEVKLAIKPYYQKKDITKEEYKDILRKAVHKICHSKSGEINPVKVSNLVRAYVQRYRYFRKHGRKPGDPPGPPRPPKEPGPPDKGGPGLPLPPL
# B2: Splicing factor, arginine/serine-rich 4 (protein, UniProt Q08170 1-494)
# chain: MPRVYIGRLSYQARERDVERFFKGYGKILEVDLKNGYGFVEFDDLRDADDAVYELNGKDLCGERVIVEHARGPRRDGSYGSGRSGYGYRRSGRDKYGPPTRTEYRLIVENLSSRCSWQDLKDYMRQAGEVTYADAHKGRKNEGVIEFVSYSDMKRALEKLDGTEVNGRKIRLVEDKPGSRRRRSYSRSRSHSRSRSRSRHSRKSRSRSGSSKSSHSKSRSRSRSGSRSRSKSRSRSQSRSRSKKEKSRSPSKEKSRSRSHSAGKSRSKSKDQAEEKIQNNDNVGKPKSRSPSRHKSKSKSRSRSQERRVEEEKRGSVSRGRSQEKSLRQSRSRSRSKGGSRSRSRSRSKSKDKRKGRKRSREESRSRSRSRSKSERSRKRGSKRDSKAGSSKKKKKEDTDRSQSRSPSRSVSKEREHAKSESSQREGRGESENAGTNQETRSRSRSNSKSKPNLPSESRSRSKSASKTRSRSKSRSRSASRSPSRSRSRSHSRS
# B3: Splicing factor, arginine/serine-rich 6 (protein, UniProt Q13247 1-344)
# chain: MPRVYIGRLSYNVREKDIQRFFSGYGRLLEVDLKNGYGFVEFEDSRDADDAVYELNGKELCGERVIVEHARGPRRDRDGYSYGSRSGGGGYSSRRTSGRDKYGPPVRTEYRLIVENLSSRCSWQDLKDFMRQAGEVTYADAHKERTNEGVIEFRSYSDMKRALDKLDGTEINGRNIRLIEDKPRTSHRRSYSGSRSRSRSRRRSRSRSRRSSRSRSRSISKSRSRSRSRSKGRSRSRSKGRKSRSKSKSKPKSDRGSHSHSRSRSKDEYEKSRSRSRSRSPKENGKGDIKSKSRSRSQSRSNSPLPVPPSKARSVSPPPKRATSRSRSRSRSKSRSRSRSSSRD
# B4: ATP-dependent RNA helicase DDX18 (protein, UniProt Q9NVP1 1-670)
# chain: MSHLPMKLLRKKIEKRNLKLRQRNLKFQGASNLTLSETQNGDVSEETMGSRKVKKSKQKPMNVGLSETQNGGMSQEAVGNIKVTKSPQKSTVLTNGEAAMQSSNSESKKKKKKKRKMVNDAEPDTKKAKTENKGKSEEESAETTKETENNVEKPDNDEDESEVPSLPLGLTGAFEDTSFASLCNLVNENTLKAIKEMGFTNMTEIQHKSIRPLLEGRDLLAAAKTGSGKTLAFLIPAVELIVKLRFMPRNGTGVLILSPTRELAMQTFGVLKELMTHHVHTYGLIMGGSNRSAEAQKLGNGINIIVATPGRLLDHMQNTPGFMYKNLQCLVIDEADRILDVGFEEELKQIIKLLPTRRQTMLFSATQTRKVEDLARISLKKEPLYVGVDDDKANATVDGLEQGYVVCPSEKRFLLLFTFLKKNRKKKLMVFFSSCMSVKYHYELLNYIDLPVLAIHGKQKQNKRTTTFFQFCNADSGTLLCTDVAARGLDIPEVDWIVQYDPPDDPKEYIHRVGRTARGLNGRGHALLILRPEELGFLRYLKQSKVPLSEFDFSWSKISDIQSQLEKLIEKNYFLHKSAQEAYKSYIRAYDSHSLKQIFNVNNLNLPQVALSFGFKVPPFVDLNVNSNEGKQKKRGGGGGFGYQKTKKVEKSKIFKHISKKSSDSRQFSH
# B5: Splicing factor, arginine/serine-rich 7 (protein, UniProt Q16629 1-238)
# chain: MSRYGRYGGETKVYVGNLGTGAGKGELERAFSYYGPLRTVWIARNPPGFAFVEFEDPRDAEDAVRGLDGKVICGSRVRVELSTGMPRRSRFDRPPARRPFDPNDRCYECGEKGHYAYDCHRYSRRRRSRSRSRSHSRSRGRRYSRSRSRSRGRRSRSASPRRSRSISLRRSRSASLRRSRSGSIKGSRYFQSPSRSRSRSRSISRPRSSRSKSRSPSPKRSRSPSGSPRRSASPERMD
# B6: Serine/arginine repetitive matrix protein 1 (protein, UniProt Q8IYB3 1-904)
# chain: MDAGFFRGTSAEQDNRFSNKQKKLLKQLKFAECLEKKVDMSKVNLEVIKPWITKRVTEILGFEDDVVIEFIFNQLEVKNPDSKMMQINLTGFLNGKNAREFMGELWPLLLSAQENIAGIPSAFLELKKEEIKQRQIEQEKLASMKKQDEDKDKRDKEEKESSREKRERSRSPRRRKSRSPSPRRRSSPVRRERKRSHSRSPRHRTKSRSPSPAPEKKEKTPELPEPSVKVKEPSVQEATSTSDILKVPKPEPIPEPKEPSPEKNSKKEKEKEKTRPRSRSRSKSRSRTRSRSPSHTRPRRRHRSRSRSYSPRRRPSPRRRPSPRRRTPPRRMPPPPRHRRSRSPVRRRRRSSASLSGSSSSSSSSRSRSPPKKPPKRTSSPPRKTRRLSPSASPPRRRHRPSPPATPPPKTRHSPTPQQSNRTRKSRVSVSPGRTSGKVTKHKGTEKRESPSPAPKPRKVELSESEEDKGGKMAAADSVQQRRQYRRQNQQSSSDSGSSSSSEDERPKRSHVKNGEVGRRRRHSPSRSASPSPRKRQKETSPRGRRRRSPSPPPTRRRRSPSPAPPPRRRRTPTPPPRRRTPSPPPRRRSPSPRRYSPPIQRRYSPSPPPKRRTASPPPPPKRRASPSPPPKRRVSHSPPPKQRSSPVTKRRSPSLSSKHRKGSSPSRSTREARSPQPNKRHSPSPRPRAPQTSSSPPPVRRGASSSPQRRQSPSPSTRPIRRVSRTPEPKKIKKAASPSPQSVRRVSSSRSVSGSPEPAAKKPPAPPSPVQSQSPSTNWSPAVPVKKAKSPTPSPSPPRNSDQEGGGKKKKKKKDKKHKKDKKHKKHKKHKKEKAVAAAAAAAVTPAAIAAATTTLAQEEPVAAPEPKKETESEAEDNLDDLEKHLREKALRSMRKAQVSPQS
# B7: Surfeit locus protein 6 (protein, UniProt O75683 1-361)
# chain: MASLLAKDAYLQSLAKKICSHSAPEQQARTRAGKTQGSETAGPPKKKRKKTQKKFRKREEKAAEHKAKSLGEKSPAASGARRPEAAKEEAAWASSSAGNPADGLATEPESVFALDVLRQRLHEKIQEARGQGSAKELSPAALEKRRRRKQERDRKKRKRKELRAKEKARKAEEATEAQEVVEATPEGACTEPREPPGLIFNKVEVSEDEPASKAQRRKEKRQRVKGNLTPLTGRNYRQLLERLQARQSRLDELRGQDEGKAQELEAKMKWTNLLYKAEGVKIRDDERLLQEALKRKEKRRAQRQRRWEKRTAGVVEKMQQRQDRRRQNLRRKKAARAERRLLRARKKGRILPQDLERAGLV
# Target: Influenza A virus non-structural protein 1 (NS1), strain A/Puerto Rico/8/1934(H1N1) (Influenza A virus A/Puerto Rico/8/1934(H1N1)) (UniProt P03496)
# Experiment: affinity purification with mass spectrometry
row,Binder,binding
1,B1,binds
2,B2,binds
3,B3,binds
4,B4,binds
5,B5,binds
6,B6,binds
7,B7,binds
